Measurements as given in patent publication US20240018229A1 (published 2024).
Results are given in words; binding and its absence hold for the method and conditions named. Some results given as binding are weak or reduced against the parent protein; the word gives no strength.

Amino acid sequences for entries named in this document (tags omitted). Residues count along the entry.
UniProt P02769, residues 25-607: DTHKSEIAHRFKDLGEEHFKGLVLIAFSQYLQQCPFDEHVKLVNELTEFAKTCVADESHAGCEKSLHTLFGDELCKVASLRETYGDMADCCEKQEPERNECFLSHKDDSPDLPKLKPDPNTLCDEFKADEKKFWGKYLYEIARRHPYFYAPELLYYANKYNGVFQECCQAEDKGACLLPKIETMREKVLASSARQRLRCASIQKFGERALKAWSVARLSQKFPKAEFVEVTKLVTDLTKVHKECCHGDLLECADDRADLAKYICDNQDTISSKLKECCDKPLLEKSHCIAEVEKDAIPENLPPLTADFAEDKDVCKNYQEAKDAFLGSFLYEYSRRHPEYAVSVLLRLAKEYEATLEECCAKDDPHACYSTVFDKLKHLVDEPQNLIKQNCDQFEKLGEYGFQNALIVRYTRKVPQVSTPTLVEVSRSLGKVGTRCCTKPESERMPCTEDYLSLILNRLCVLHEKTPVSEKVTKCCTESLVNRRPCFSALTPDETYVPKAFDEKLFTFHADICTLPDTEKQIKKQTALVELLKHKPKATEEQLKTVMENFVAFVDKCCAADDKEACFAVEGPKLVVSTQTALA

B1: anti-CXCL1 neutralizing monoclonal mouse antibody (HL2401) (antibody, V domains shown)
VH: EVKLVESGAELVKPGASVKLSCKASGYTFTSYYIYWVKQRPGQGLEWIGEIDPSHGGPTFNEKFKNKATLTVDKSSSTAYMQLSSLTSDDSAVYYCTRESGTGAMDYWGQGTTLTVSS
VL: DIVLTQSPASLAVSLGQRATISCKASQSVDYDGDSYVNWYQQKPGQPPKLLIYAASNLESRIPARFSGSGSGTDFTLNILPVEEDDGATYYCQQSSEDPWTFGGGTKLEIKR
notes: also called CXCL1 mAb (HL2401); mouse anti-human CXCL1 antibody HL2401
B2: HumBB2401 scFv (humanized version 1) (scFv)
scFv: QVQLVQSGAEVKKPGASVKLSCKASGYTFTSYYIYWVRQAPGQGLEWIGEIDPSHGGPTFNEKFKNRATLTVDKSKSTAYMELSSLRSEDTAVYYCTRESGTGAMDYWGQGTLVTVSSGGGGSGGGGSGGGARGGGGSDIQMTQSPSSLSASVGDRATISCKASQSVDYDGDSYVNWYQQKPGKAPKLLIYAASNLESGIPSRFSGSGSGTDFTLTISSLQPEDFATYYCQQSSEDPWTFGQGTKVEIKR
B3: HUM2401-ScFv_1 (humanized version 2) (scFv)
scFv: QVQLVESGGGLVQPGGSLRLSCKASGYTFTSYYIYWVRQAPGKGLEWIGEIDPSHGGPTFNEKFKNRFTISRDNSKNTLYLQMNSLRAEDTAVYYCTRESGTGAMDYWGQGTLVTVSSGGGGSGGGGSGGGARGGGGSDIQMTQSPSSLSASVGDRATISCKASQSVDYDGDSYVNWYQQKPGKAPKLLIYAASNLESGIPSRFSGSGSGTDFTLTISSLQPEDFATYYCQQSSEDPWTFGQGTKVEIKR

Experiments:
[1] = molecular target: T1, recombinant human CXCL1 protein (human, UniProt P09341 35-107); assay: immunoprecipitation followed by LC/MS-MS
T1 construct: also called human chemokine CXCL1; soluble recombinant human CXCL1
T1 sequence: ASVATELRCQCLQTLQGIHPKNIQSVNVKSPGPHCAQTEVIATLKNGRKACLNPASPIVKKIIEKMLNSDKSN

[2] = molecular target: T1, recombinant human CXCL1 protein; assay: immunoblot strip (the text does not name the assay); 10, 20 and 30 ng of CXCL1 of each species loaded
[3] = molecular target: T1, recombinant human CXCL1 protein; assay: absorbance at 450 nm against ng/mL, in PBS and in diluted human serum; neither the sheet nor the text says which partner is titrated
[4] = molecular target: T1, recombinant human CXCL1 protein; assay: ELISA and Western blot, anti-Myc detection
[5] = molecular target: BSA (bovine) (UniProt P02769); assay: ELISA on coated BSA, scFv detected with anti-Myc HRP and TMB
[6] = molecular target: T1, recombinant human CXCL1 protein; assay: ELISA on coated human CXCL1 (30 ng per well), scFv detected with anti-Myc HRP and TMB
[7] = molecular target: T1, recombinant human CXCL1 protein; assay: Western blot: CXCL1 on the membrane probed with purified HumBB2401scFv, then anti-c-Myc mouse antibody, HRP secondary, TMB
[8] = molecular target: T1, recombinant human CXCL1 protein; assay: Western blot: CXCL1 on the membrane probed with purified Hum2401scFv, then anti-c-Myc mouse antibody, HRP secondary, TMB

Binder | binding [1] | binding [2] | binding [3] | binding [4] | binding [5] | binding [6] | binding [7] | binding [8]
B1 | binds | binds | binds | – | – | – | – | –
B2 | – | – | – | binds | no binding (tested: 10ug/mL) | binds | binds | –
B3 | – | – | – | binds | no binding (tested: 10ug/mL) | binds | – | binds
